Results as given in the supplement of paper PMC4604168 (melanoma cell lines).
This is one part of the list. Repeats are few or missing, and single values can be far off.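 Imaging used 1,536-well plates; nuclei positive for cleaved PARP by antibody were divided by total DNA-stained nuclei to yield the apoptosis fraction. Doses for screening kept most cells viable, and cell lines differ markedly in resting and induced cleaved-PARP levels.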

Columns and labels:
Test in all cases: cleaved PARP positive nuclei fraction relative to DMSO control; melanoma cells; higher = more apoptosis
Conditions in all cases: library dose: low library concentration; 72 h
CBRC034 = system: CBRC034 (line from a melanoma biopsy)
COLO792 = system: COLO792
COLO800 = system: COLO800
COLO829 = system: COLO829
G361 = system: G361
IPC-298 = system: IPC-298
IST-MEL1 = system: IST-MEL1
LB2518-MEL = system: LB2518-MEL
LOXIMVI = system: LOXIMVI
MEL-HO = system: MEL-HO

Row | SMILES | cleaved PARP positive nuclei fraction (CBRC034) | cleaved PARP positive nuclei fraction (COLO792) | cleaved PARP positive nuclei fraction (COLO800) | cleaved PARP positive nuclei fraction (COLO829) | cleaved PARP positive nuclei fraction (G361) | cleaved PARP positive nuclei fraction (IPC-298) | cleaved PARP positive nuclei fraction (IST-MEL1) | cleaved PARP positive nuclei fraction (LB2518-MEL) | cleaved PARP positive nuclei fraction (LOXIMVI) | cleaved PARP positive nuclei fraction (MEL-HO)
1 | O=c1[nH]nc(Sc2ncc([N+](=O)[O-])s2)n1-c1ccc2c(c1)OCCO2 + Cn1cc(C2=C(c3cn(C4CCN(Cc5ccccn5)CC4)c4ccccc34)C(=O)NC2=O)c2ccccc21 [Enzastaurin] (first compound 0.2 µM, partner dose 0.8 µM) | 215% | 96.1% | 34.8% | 53.6% | 71.3% | 81.7% | 62.8% | 128% | 76.7% | 36%
2 | O=c1[nH]nc(Sc2ncc([N+](=O)[O-])s2)n1-c1ccc2c(c1)OCCO2 + C[As](C)SC[C@H](NC(=O)CC[C@H](N)C(=O)O)C(=O)NCC(=O)O [Darinaparsin] (first compound 0.2 µM, partner dose 0.4 µM) | 56.5% | 97.7% | 248% | 119% | 40.9% | 129% | 88.3% | 138% | 118% | 104%
3 | C[As](C)SC[C@H](NC(=O)CC[C@H](N)C(=O)O)C(=O)NCC(=O)O [Darinaparsin] + Cn1nnc2c(C(N)=O)ncn2c1=O [temozolomide] (first compound 0.4 µM, partner dose 2 µM) | 49.8% | 124% | 59% | 81.6% | 74.1% | 258% | 258% | 116% | 192% | 57%
4 | C[C@]12O[C@H](C[C@]1(O)CO)n1c3ccccc3c3c4c(c5c6ccccc6n2c5c31)CNC4=O [Lestaurtinib] + Cc1cc(Nc2cc(N3CCN(C)CC3)nc(/C=C/c3ccccc3)n2)n[nH]1 [ENMD2076] (first compound 0.004 µM, partner dose 0.04 µM) | 120% | 134% | 92% | 89% | 72.5% | 91.8% | 130% | 214% | 257% | 113%
5 | Cc1cn(-c2cc(NC(=O)c3ccc(C)c(Nc4nccc(-c5cccnc5)n4)c3)cc(C(F)(F)F)c2)cn1 [nilotinib] + N.N.[Cl][Pt][Cl] [cisplatin] (first compound 0.2 µM, partner dose 1.6 µM) | 76% | 124% | 116% | 84.9% | 105% | 88.2% | 87.8% | 108% | 22.4% | 72.3%
6 | N.N.[Cl][Pt][Cl] [cisplatin] + CCCS(=O)(=O)Nc1ccc(F)c(C(=O)c2c[nH]c3ncc(Cl)cc23)c1F [PLX4720] (first compound 1.6 µM, partner dose 0.08 µM) | 71% | 56.8% | 97.4% | 141% | 139% | 45.4% | 127% | 98.4% | 135% | 84.2%
7 | Cn1cc(C2=C(c3cn(C4CCN(Cc5ccccn5)CC4)c4ccccc34)C(=O)NC2=O)c2ccccc21 [Enzastaurin] + COc1ccc(Cl)c(Nc2nc3ccccc3nc2NS(=O)(=O)c2cccc(NC(=O)C(C)(C)N)c2)c1 [XL147] (first compound 0.8 µM, partner dose 0.8 µM) | 44% | 63.1% | 82.3% | 82.2% | 41.5% | 134% | 62.3% | 192% | 115% | 59.7%
8 | Cn1cc(C2=C(c3cn(C4CCN(Cc5ccccn5)CC4)c4ccccc34)C(=O)NC2=O)c2ccccc21 [Enzastaurin] + C=C(c1ccc(C(=O)O)cc1)c1cc2c(cc1C)C(C)(C)CCC2(C)C [Bexarotene] (first compound 0.8 µM, partner dose 2 µM) | 83.4% | 86.3% | 59% | 117% | 241% | 86.9% | 124% | 99.8% | 19% | 35.5%
9 | O=C(Nc1cc(C(F)(F)F)cc(C(F)(F)F)c1)c1cc(Cl)ccc1O + C[As](C)SC[C@H](NC(=O)CC[C@H](N)C(=O)O)C(=O)NCC(=O)O [Darinaparsin] (first compound 0.016 µM, partner dose 0.4 µM) | 161% | 56.8% | 99% | 64.6% | 51.7% | 30% | 61.1% | 54.9% | 108% | 79.8%
10 | C[C@@H](N)c1ccc(C(=O)Nc2ccnc3[nH]ccc23)cc1 + N.N.[Cl][Pt][Cl] [cisplatin] (first compound 0.4 µM, partner dose 1.6 µM) | 67.1% | 192% | 108% | 86.8% | 184% | 164% | 87.7% | 106% | 112% | 182%
11 | Cn1cc(C2=C(c3cn(C4CCN(Cc5ccccn5)CC4)c4ccccc34)C(=O)NC2=O)c2ccccc21 [Enzastaurin] + CC(=O)c1c(C)c2cnc(Nc3ccc(N4CCNCC4)cn3)nc2n(C2CCCC2)c1=O [palbociclib] (first compound 0.8 µM, partner dose 0.04 µM) | 35.4% | 93.6% | 19.2% | 110% | 87.9% | 87.7% | 146% | 56.2% | 80.9% | 60.8%
12 | O=C(Nc1cc(C(F)(F)F)cc(C(F)(F)F)c1)c1cc(Cl)ccc1O + C[C@]12O[C@H](C[C@]1(O)CO)n1c3ccccc3c3c4c(c5c6ccccc6n2c5c31)CNC4=O [Lestaurtinib] (first compound 0.016 µM, partner dose 0.004 µM) | 73.8% | 160% | 96.3% | 144% | 156% | 82.8% | 63.9% | 101% | 138% | 99.4%
13 | N.N.[Cl][Pt][Cl] [cisplatin] + CS(=O)(=O)CCNCc1ccc(-c2ccc3ncnc(Nc4ccc(OCc5cccc(F)c5)c(Cl)c4)c3c2)o1 [lapatinib] (first compound 1.6 µM, partner dose 0.8 µM) | 51.5% | 239% | 68.5% | 83.3% | 194% | 79.1% | 132% | 49.7% | 98.8% | 34.3%
14 | N.N.[Cl][Pt][Cl] [cisplatin] + Cc1nc(Nc2ncc(C(=O)Nc3c(C)cccc3Cl)s2)cc(N2CCN(CCO)CC2)n1 [dasatanib] (first compound 1.6 µM, partner dose 0.004 µM) | 110% | 103% | 133% | 89.6% | 103% | 85.9% | 64.9% | 121% | 187% | 218%
15 | C[C@]12O[C@H](C[C@]1(O)CO)n1c3ccccc3c3c4c(c5c6ccccc6n2c5c31)CNC4=O [Lestaurtinib] + Nc1cccc2c1CN(C1CCC(=O)NC1=O)C2=O [lenalidomide] (first compound 0.004 µM, partner dose 1 µM) | 222% | 77% | 103% | 175% | 96.8% | 203% | 60.8% | 51.8% | 59.4% | 63.4%
16 | N.N.[Cl][Pt][Cl] [cisplatin] + Clc1ccc(Nc2nnc(Cc3ccncc3)c3ccccc23)cc1 [vatalanib] (first compound 1.6 µM, partner dose 2 µM) | 146% | 116% | 66.3% | 78.7% | 97.7% | 123% | 62.4% | 94.3% | 194% | 209%
17 | Cc1cn(-c2cc(NC(=O)c3ccc(C)c(Nc4nccc(-c5cccnc5)n4)c3)cc(C(F)(F)F)c2)cn1 [nilotinib] + C[As](C)SC[C@H](NC(=O)CC[C@H](N)C(=O)O)C(=O)NCC(=O)O [Darinaparsin] (first compound 0.2 µM, partner dose 0.4 µM) | 44.2% | 139% | 74.9% | 140% | 57.4% | 57.4% | 139% | 95.9% | 37.9% | 136%
18 | Nc1ccn([C@@H]2O[C@H](CO)[C@@H](O)C2(F)F)c(=O)n1 [gemcitabine] + C[As](C)SC[C@H](NC(=O)CC[C@H](N)C(=O)O)C(=O)NCC(=O)O [Darinaparsin] (first compound 0.0004 µM, partner dose 0.4 µM) | 169% | 155% | 189% | 131% | 79.4% | 137% | 312% | 123% | 86.8% | 166%
19 | Cn1cnc2c(F)c(Nc3ccc(Br)cc3Cl)c(C(=O)NOCCO)cc21 [selumetinib] + N.N.[Cl][Pt][Cl] [cisplatin] (first compound 0.015 µM, partner dose 1.6 µM) | 101% | 40.5% | 74.7% | 135% | 95.2% | 52.5% | 348% | 156% | 188% | 103%
20 | C[As](C)SC[C@H](NC(=O)CC[C@H](N)C(=O)O)C(=O)NCC(=O)O [Darinaparsin] + C[C@]1(c2nc3c(C(N)=O)cccc3[nH]2)CCCN1 [Veliparib] (first compound 0.4 µM, partner dose 1.4 µM) | 188% | 116% | 127% | 135% | 32.9% | 88% | 109% | 63.8% | 88.5% | 111%
21 | Cc1cc(Nc2cc(N3CCN(C)CC3)nc(/C=C/c3ccccc3)n2)n[nH]1 + N.N.[Cl][Pt][Cl] [cisplatin] (first compound 0.04 µM, partner dose 1.6 µM) | 78.5% | 132% | 164% | 86.2% | 126% | 31.8% | 132% | 104% | 139% | 65.1%
22 | Cn1cc(C2=C(c3cn(C4CCN(Cc5ccccn5)CC4)c4ccccc34)C(=O)NC2=O)c2ccccc21 [Enzastaurin] + Nc1ncn([C@H]2C[C@H](O)[C@@H](CO)O2)c(=O)n1 [decitabine] (first compound 0.8 µM, partner dose 0.1 µM) | 34.5% | 111% | 112% | 57.7% | 107% | 82.2% | 278% | 60.2% | 102% | 82.5%

Exported as tab-separated lines: part of the list above
Row	SMILES	cleaved PARP positive nuclei fraction (CBRC034)	cleaved PARP positive nuclei fraction (COLO792)	cleaved PARP positive nuclei fraction (COLO800)	cleaved PARP positive nuclei fraction (COLO829)	cleaved PARP positive nuclei fraction (G361)	cleaved PARP positive nuclei fraction (IPC-298)	cleaved PARP positive nuclei fraction (IST-MEL1)	cleaved PARP positive nuclei fraction (LB2518-MEL)	cleaved PARP positive nuclei fraction (LOXIMVI)	cleaved PARP positive nuclei fraction (MEL-HO)
14	N.N.[Cl][Pt][Cl] [cisplatin] + Cc1nc(Nc2ncc(C(=O)Nc3c(C)cccc3Cl)s2)cc(N2CCN(CCO)CC2)n1 [dasatanib] (first compound 1.6 µM, partner dose 0.004 µM)	110%	103%	133%	89.6%	103%	85.9%	64.9%	121%	187%	218%
15	C[C@]12O[C@H](C[C@]1(O)CO)n1c3ccccc3c3c4c(c5c6ccccc6n2c5c31)CNC4=O [Lestaurtinib] + Nc1cccc2c1CN(C1CCC(=O)NC1=O)C2=O [lenalidomide] (first compound 0.004 µM, partner dose 1 µM)	222%	77%	103%	175%	96.8%	203%	60.8%	51.8%	59.4%	63.4%
16	N.N.[Cl][Pt][Cl] [cisplatin] + Clc1ccc(Nc2nnc(Cc3ccncc3)c3ccccc23)cc1 [vatalanib] (first compound 1.6 µM, partner dose 2 µM)	146%	116%	66.3%	78.7%	97.7%	123%	62.4%	94.3%	194%	209%
17	Cc1cn(-c2cc(NC(=O)c3ccc(C)c(Nc4nccc(-c5cccnc5)n4)c3)cc(C(F)(F)F)c2)cn1 [nilotinib] + C[As](C)SC[C@H](NC(=O)CC[C@H](N)C(=O)O)C(=O)NCC(=O)O [Darinaparsin] (first compound 0.2 µM, partner dose 0.4 µM)	44.2%	139%	74.9%	140%	57.4%	57.4%	139%	95.9%	37.9%	136%
18	Nc1ccn([C@@H]2O[C@H](CO)[C@@H](O)C2(F)F)c(=O)n1 [gemcitabine] + C[As](C)SC[C@H](NC(=O)CC[C@H](N)C(=O)O)C(=O)NCC(=O)O [Darinaparsin] (first compound 0.0004 µM, partner dose 0.4 µM)	169%	155%	189%	131%	79.4%	137%	312%	123%	86.8%	166%
19	Cn1cnc2c(F)c(Nc3ccc(Br)cc3Cl)c(C(=O)NOCCO)cc21 [selumetinib] + N.N.[Cl][Pt][Cl] [cisplatin] (first compound 0.015 µM, partner dose 1.6 µM)	101%	40.5%	74.7%	135%	95.2%	52.5%	348%	156%	188%	103%
